Library screen at single concentrations

The chains behind the UniProt entries cited, without tags or fusion partners. Residues count along the entry.
UniProt A4I591, 1-473: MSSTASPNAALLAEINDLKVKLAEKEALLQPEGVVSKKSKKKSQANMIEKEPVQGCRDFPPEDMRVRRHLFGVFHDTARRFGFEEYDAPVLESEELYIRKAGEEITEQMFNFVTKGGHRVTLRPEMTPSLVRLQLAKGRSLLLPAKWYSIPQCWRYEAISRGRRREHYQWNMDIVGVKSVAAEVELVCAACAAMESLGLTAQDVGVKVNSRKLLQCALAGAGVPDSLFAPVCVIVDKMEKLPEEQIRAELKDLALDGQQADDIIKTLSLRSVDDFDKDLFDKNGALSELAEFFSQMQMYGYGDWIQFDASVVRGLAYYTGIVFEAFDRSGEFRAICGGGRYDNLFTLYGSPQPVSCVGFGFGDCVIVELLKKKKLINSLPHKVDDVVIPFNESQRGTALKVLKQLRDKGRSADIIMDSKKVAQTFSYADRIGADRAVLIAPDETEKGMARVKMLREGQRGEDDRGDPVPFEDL

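Histidine-tRNA ligase, Leishmania infantum (UniProt A4I591). Enzyme assay of histidyl-tRNA synthetase; the read-out is not stated. Concentration: 30 µM. Direction is inferred from retests: higher values go with stronger inhibition. The assay is labelled LdHisRS but filed under L. infantum. About 69,000 compounds were tested under these conditions; 0.6% (about 410) showed 50% or more at least once.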

The filed quantity is “Percent Effect” (%).
How 0% and 100% were set is not recorded. Most values in the screen are low, and negative values occur.
Compounds were drawn at random from those tested, without regard to their results.

| Compound | Percent Effect |
|---|---|
| `Cc1csc(CN(CC2CCCO2)C(=O)c2occc2C)n1` (configuration not stated) | 4.167 |
| `CCNC(=O)NC1CN(CC(=O)NCc2ccccc2C)C[C@@H]1OC` (some centres not stated) | 15.25 |
| `CC(Cc1cnccn1)NC(=O)c1cccc(CC2CCNCC2)c1` (configuration not stated) | 9.333 |
| `O=C(NC[C@H]1OC[C@@H](NC2CCC2)[C@@H]1O)c1cccs1` | 5.556 |
| `Cc1noc(C2CCN(C(=O)c3cc(Br)ccc3F)CC2)n1` | 0 |
| `CSCc1cccc(S(=O)(=O)N2CCCCCC2)c1` | 20.69 |
| `O=C(c1n[nH]c2c1CN(C1CCOCC1)CC2)N1CCCC1` | 15.38 |
| `Cc1ccccc1CN1CCN(Cc2nccn2C)CC1` | 14.29 |
| `Cc1nc(C(C)NC(=O)c2cn(CCC3CCCCC3)nn2)n[nH]1` (configuration not stated) | 12.09 |
| `O=C1COc2cc(C(=O)NCc3ccc(Cl)s3)ccc2N1` | 14.58 |
| `COc1cc(NC(=O)NCc2cc(C)oc2C)cc(OC)c1` | 11.11 |
| `CCN(C)Cc1cccc(CNC(=O)NCCc2ccccn2)c1` | 3.529 |
| `Cc1nc(C)n(CCNC2CCN(c3ncnc4c(C)csc34)CC2)n1` | 16.8 |
| `CC(=O)NCCNC(=O)CN1CCCC1c1c(C)nn(C)c1C` (configuration not stated) | 7.895 |
| `O=C1CC(c2cccnc2)C2(CCN(S(=O)(=O)C3CC3)CC2)N1` (configuration not stated) | 10.53 |
| `Cc1noc(C)c1CCC(=O)N1CCCN(Cc2cscn2)CC1` | 23.2 |
| `COc1cc2ccccc2cc1C(=O)N1CCCC(c2nncn2C)C1` (configuration not stated) | 13.27 |
| `Cc1nc(NS(=O)(=O)c2cc(Br)ccc2C)no1` | 9.677 |
| `N#Cc1ccc(CNC(=O)NCCNC(=O)C2CCCC2)c(F)c1` | 22.67 |
| `Cc1ccc2cc(C3(O)CCN(C(=O)CN4CCCC4)CC3)ccc2n1` | -0.9615 |
| `CC(Cn1cccn1)NCCS(=O)(=O)c1ccccc1` (configuration not stated) | 4.444 |
| `COc1cccc(CC(=O)N2CCC(NCc3c[nH]nc3C)CC2)c1` | -47.71 |
| `CCOc1ccc(NC(=O)N2CCNC(=O)C2)c(C(F)(F)F)c1` | 16.81 |
| `O=C(C(C1CC1)C1CC1)N1CCC(n2ccnn2)CC1` | 19.15 |
| `CCCc1noc(CN2CCC(C(=O)Nc3cnn(CC)c3)CC2)n1` | 8.772 |
| `c1cc(-c2cncnc2)cc(-c2ccn(CC3CCNC3)n2)c1` (configuration not stated) | 13.11 |
| `COc1nc2ccccc2cc1C1CC(=O)Nc2n[nH]c(C3CCC3)c21` (configuration not stated) | 20.41 |
| `CCc1nc(C2CCCN2CC(=O)N2CCc3ccccc32)no1` (configuration not stated) | 27.27 |
| `COc1ccc(-c2cc(C3CCOC3)c(C#N)c(N)n2)cn1` (configuration not stated) | -8.333 |
| `Cc1nc(C)c(CN2CCOC[C@H](Oc3cnccn3)C2)s1` | 11.11 |
| `CCOCCNC(=O)C(CCSC)NC(=O)c1ccc2ccccc2n1` (configuration not stated) | -4 |
| `O=C(NCCCN1CCOCC1)c1ccc(-n2ccc3ccccc32)s1` | 20.22 |
| `O=C(NCc1ccccc1Cn1cncn1)N1CCCC1` | 12.24 |
| `CCOc1ncccc1C(=O)N1CCCC(c2nncn2C)C1` (configuration not stated) | 13.27 |
| `CCC(CO)N(C/C(C)=C/c1ccco1)Cc1ccccn1` (configuration not stated) | 18.03 |
| `Cn1cc(CN2C[C@@H]3CN(C(=O)c4cccn4C)CCO[C@@H]3C2)cn1` | 4.505 |
| `COc1ncccc1-c1ncccc1NC(=O)C(C)C` | 16.39 |
| `Cc1ccc(C(=O)NC2CCN(C(=O)Nc3ccccn3)CC2)o1` | -2.667 |
| `CCN1CCCN(S(=O)(=O)c2cc3ccccc3o2)CC1` | 9.091 |
| `Nc1cc2c(nn1)CCN(C(=O)Cc1ccc3c(c1)CCCC3)C2` | 4.386 |
| `Cc1cccc(C(=O)Nc2c(C(=O)N(C)C)nn(C)c2C)c1` | 10.34 |
| `CCc1noc(CN(C)C(=O)C2COc3ccccc3C2)n1` (configuration not stated) | 13.6 |
| `CC(C)N1C(=O)CN(CCOCCO)CC1(C)C` | 2.083 |
| `O=C(NCCCc1ccncc1)C1CCCN(Cc2ccco2)C1` (configuration not stated) | -4.854 |
| `CN(Cc1ccc(Cl)cc1)S(=O)(=O)N(C)Cc1cnn(C)c1` | 11.11 |
| `Clc1ccc(CNc2cnn(CCN3CCOCC3)c2)cc1Cl` | 4.878 |
| `NC(=O)NCCC(=O)NCc1cccnc1N1CCc2ccccc2C1` | 16.98 |
| `CC(C)(C)n1cc(CNC2CCN(C(=O)c3ccncc3)CC2)cn1` | 23.94 |
| `O=C(NC1CCC(N2C(=O)CCC2=O)CC1)c1c[nH]c2ccccc12` (configuration not stated) | 21.92 |
| `O=C(c1cc2cccc(F)c2[nH]1)N1C[C@@H](O)[C@H](N2CCCC2)C1` | 10.74 |
| `O=C(COC1CCCC1)N1C[C@@H]2CN(Cc3ccoc3)CCO[C@@H]2C1` | 14.53 |
| `CC(=O)c1ccc(NCc2cc3n(n2)CCCN(S(C)(=O)=O)C3)nc1` | 22.22 |

The first 5 entries again:

{"compound": "Cc1csc(CN(CC2CCCO2)C(=O)c2occc2C)n1", "stereo": "configuration not stated", "Percent Effect": 4.167}
{"compound": "CCNC(=O)NC1CN(CC(=O)NCc2ccccc2C)C[C@@H]1OC", "stereo": "some centres not stated", "Percent Effect": 15.25}
{"compound": "CC(Cc1cnccn1)NC(=O)c1cccc(CC2CCNCC2)c1", "stereo": "configuration not stated", "Percent Effect": 9.333}
{"compound": "O=C(NC[C@H]1OC[C@@H](NC2CCC2)[C@@H]1O)c1cccs1", "Percent Effect": 5.556}
{"compound": "Cc1noc(C2CCN(C(=O)c3cc(Br)ccc3F)CC2)n1", "Percent Effect": 0}

From ChEMBL document CHEMBL3988442, “University of Dundee, Small-Polar-MMV Screening Library” (2021).